# Source: the supplement of paper PMC10032668
# The chains behind the UniProt entries cited, without tags or fusion partners.
# AHSA1, O95433, UniProt O95433, whole entry: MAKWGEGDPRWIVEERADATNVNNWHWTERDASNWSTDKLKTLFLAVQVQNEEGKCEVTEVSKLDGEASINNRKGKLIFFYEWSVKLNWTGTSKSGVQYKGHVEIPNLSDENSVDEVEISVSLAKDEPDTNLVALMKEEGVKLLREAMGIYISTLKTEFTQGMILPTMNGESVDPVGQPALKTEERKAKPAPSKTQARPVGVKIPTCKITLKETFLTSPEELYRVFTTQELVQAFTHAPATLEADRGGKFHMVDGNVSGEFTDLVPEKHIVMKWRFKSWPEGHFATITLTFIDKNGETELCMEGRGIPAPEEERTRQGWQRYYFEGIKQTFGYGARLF
# ATXN2, Q99700, UniProt Q99700, whole entry: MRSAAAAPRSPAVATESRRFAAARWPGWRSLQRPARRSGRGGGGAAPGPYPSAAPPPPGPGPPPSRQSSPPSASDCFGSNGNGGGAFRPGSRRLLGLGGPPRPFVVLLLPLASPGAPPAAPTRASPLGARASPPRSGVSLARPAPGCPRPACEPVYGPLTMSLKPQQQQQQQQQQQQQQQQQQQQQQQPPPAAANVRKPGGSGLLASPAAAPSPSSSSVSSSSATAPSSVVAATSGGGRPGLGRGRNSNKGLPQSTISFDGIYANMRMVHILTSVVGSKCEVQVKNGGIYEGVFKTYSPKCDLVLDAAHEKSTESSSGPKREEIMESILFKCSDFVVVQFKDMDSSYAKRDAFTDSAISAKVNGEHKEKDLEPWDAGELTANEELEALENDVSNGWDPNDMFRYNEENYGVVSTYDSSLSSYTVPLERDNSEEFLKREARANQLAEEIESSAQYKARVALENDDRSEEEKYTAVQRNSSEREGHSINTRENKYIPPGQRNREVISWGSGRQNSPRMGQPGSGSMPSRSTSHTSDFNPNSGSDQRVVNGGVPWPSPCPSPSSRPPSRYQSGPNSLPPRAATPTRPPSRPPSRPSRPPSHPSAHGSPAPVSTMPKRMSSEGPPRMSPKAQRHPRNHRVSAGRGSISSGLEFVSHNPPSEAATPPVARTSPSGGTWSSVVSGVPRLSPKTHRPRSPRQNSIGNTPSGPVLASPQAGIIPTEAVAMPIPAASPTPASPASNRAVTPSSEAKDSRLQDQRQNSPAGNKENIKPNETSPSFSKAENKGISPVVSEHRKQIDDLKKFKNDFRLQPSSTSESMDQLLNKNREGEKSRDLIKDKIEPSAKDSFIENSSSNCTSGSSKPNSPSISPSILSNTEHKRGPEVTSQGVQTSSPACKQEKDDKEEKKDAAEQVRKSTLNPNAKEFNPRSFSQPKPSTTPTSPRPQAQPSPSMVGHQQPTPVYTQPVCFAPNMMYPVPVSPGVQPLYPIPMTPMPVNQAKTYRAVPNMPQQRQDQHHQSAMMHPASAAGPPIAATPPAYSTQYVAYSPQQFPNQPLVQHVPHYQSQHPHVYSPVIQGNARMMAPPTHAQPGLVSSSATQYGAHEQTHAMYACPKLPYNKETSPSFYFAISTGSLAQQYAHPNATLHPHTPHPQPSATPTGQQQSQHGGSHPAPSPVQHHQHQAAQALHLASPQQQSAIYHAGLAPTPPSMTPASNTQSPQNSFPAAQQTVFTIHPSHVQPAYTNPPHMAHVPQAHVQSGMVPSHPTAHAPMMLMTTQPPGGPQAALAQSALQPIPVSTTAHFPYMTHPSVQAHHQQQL
# CCAR2, Q8N163, UniProt Q8N163, whole entry: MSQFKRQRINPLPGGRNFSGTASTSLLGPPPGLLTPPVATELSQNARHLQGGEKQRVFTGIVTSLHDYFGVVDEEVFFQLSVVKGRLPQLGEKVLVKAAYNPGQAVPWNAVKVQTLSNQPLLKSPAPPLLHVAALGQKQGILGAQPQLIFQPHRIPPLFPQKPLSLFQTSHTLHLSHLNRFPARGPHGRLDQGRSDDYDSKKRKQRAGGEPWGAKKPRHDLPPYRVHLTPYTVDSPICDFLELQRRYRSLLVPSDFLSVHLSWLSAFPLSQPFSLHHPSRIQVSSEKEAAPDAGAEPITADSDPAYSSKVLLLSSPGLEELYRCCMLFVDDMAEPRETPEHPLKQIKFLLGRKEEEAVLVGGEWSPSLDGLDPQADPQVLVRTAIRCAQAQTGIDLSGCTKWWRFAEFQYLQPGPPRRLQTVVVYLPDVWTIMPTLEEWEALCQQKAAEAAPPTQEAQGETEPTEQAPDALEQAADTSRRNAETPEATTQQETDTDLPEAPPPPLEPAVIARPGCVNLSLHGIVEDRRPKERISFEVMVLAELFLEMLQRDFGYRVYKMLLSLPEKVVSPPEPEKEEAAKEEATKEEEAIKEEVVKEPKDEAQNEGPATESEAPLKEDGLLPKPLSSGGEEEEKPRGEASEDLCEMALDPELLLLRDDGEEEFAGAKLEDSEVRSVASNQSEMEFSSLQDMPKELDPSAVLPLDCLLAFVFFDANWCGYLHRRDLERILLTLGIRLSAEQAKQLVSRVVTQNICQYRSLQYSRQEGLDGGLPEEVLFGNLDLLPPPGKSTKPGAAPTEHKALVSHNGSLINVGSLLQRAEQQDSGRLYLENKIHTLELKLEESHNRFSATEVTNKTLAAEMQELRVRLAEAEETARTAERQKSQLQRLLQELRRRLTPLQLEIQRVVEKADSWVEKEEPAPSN
# CHMP2B, Q9UQN3, UniProt Q9UQN3, whole entry: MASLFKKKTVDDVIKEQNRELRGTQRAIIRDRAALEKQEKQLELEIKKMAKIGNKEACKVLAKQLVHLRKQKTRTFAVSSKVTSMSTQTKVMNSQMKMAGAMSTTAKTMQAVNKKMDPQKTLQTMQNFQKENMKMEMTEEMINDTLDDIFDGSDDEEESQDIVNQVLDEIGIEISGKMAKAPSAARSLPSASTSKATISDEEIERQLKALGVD
# CKS1B, P61024, UniProt P61024, whole entry: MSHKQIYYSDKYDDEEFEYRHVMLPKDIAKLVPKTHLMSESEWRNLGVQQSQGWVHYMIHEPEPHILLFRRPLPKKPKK
# CKS2, P33552, UniProt P33552, whole entry: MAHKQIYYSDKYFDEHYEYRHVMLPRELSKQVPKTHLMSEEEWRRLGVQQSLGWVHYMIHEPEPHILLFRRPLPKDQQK
# DCTN1, Q14203, UniProt Q14203, whole entry: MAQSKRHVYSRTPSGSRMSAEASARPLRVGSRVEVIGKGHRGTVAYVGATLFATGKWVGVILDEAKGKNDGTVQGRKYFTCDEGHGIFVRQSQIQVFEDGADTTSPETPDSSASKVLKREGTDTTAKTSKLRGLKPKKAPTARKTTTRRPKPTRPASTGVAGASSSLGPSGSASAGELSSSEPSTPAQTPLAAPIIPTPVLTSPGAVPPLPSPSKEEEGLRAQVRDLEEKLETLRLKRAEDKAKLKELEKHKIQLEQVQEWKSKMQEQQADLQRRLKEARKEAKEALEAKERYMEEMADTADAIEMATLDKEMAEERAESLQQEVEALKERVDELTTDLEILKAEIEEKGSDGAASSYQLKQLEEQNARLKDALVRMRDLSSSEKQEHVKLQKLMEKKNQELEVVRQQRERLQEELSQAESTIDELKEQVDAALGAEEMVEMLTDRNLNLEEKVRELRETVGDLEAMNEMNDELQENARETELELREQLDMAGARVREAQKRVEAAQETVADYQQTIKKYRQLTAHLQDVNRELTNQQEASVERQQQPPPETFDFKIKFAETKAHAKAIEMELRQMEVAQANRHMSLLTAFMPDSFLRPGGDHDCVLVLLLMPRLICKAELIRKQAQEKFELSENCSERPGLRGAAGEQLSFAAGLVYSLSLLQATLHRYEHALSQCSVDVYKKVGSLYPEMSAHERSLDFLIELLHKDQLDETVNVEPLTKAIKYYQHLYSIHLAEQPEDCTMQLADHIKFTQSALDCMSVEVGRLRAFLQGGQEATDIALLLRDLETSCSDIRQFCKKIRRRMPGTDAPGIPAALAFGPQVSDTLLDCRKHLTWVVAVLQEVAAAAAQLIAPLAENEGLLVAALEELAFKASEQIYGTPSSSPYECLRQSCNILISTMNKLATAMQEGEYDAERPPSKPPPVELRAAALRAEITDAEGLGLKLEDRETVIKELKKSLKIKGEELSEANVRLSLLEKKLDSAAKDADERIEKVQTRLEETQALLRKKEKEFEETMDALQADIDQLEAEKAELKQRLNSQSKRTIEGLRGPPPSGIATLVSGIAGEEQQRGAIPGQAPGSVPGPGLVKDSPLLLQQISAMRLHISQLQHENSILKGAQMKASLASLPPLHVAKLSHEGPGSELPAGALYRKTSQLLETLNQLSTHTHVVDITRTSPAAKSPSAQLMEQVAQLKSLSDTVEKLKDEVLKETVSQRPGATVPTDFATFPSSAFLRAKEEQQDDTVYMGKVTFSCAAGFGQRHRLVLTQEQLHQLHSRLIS
# EIF1, P41567, UniProt P41567, whole entry: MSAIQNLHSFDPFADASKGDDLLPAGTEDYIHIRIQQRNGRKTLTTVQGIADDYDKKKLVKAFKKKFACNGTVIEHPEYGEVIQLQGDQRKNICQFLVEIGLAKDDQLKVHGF
# EIF1B, O60739, UniProt O60739, whole entry: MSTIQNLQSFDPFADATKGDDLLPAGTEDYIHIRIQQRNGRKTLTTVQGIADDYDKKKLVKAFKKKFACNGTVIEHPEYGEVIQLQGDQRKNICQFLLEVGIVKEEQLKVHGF
# EPB41L2, O43491, UniProt O43491, whole entry: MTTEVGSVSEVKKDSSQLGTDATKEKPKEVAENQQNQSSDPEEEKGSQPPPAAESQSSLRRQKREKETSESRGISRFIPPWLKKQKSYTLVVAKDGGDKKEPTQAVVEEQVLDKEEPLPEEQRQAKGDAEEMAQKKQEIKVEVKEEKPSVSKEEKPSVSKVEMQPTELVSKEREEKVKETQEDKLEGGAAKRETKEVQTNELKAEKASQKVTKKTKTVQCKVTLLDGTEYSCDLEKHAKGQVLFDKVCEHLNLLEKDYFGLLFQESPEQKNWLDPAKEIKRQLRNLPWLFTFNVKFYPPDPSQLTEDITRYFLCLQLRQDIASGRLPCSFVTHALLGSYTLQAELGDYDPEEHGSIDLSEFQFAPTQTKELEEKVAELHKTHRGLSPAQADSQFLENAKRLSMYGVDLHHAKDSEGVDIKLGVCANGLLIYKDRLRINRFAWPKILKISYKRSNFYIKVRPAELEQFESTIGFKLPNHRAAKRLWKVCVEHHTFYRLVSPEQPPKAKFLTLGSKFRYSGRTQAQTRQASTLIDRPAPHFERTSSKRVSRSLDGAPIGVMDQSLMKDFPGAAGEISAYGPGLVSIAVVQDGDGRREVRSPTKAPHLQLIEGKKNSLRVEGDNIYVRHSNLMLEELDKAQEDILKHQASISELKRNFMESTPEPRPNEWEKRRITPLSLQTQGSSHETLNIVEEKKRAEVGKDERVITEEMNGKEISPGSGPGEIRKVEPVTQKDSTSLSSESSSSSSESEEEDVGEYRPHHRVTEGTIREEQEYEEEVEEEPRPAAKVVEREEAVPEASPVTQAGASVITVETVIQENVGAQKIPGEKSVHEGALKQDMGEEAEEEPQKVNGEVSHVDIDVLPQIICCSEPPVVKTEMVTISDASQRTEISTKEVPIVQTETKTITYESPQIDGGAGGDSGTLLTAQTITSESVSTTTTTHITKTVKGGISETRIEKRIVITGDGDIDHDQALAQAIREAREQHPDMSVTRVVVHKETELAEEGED
# LARP4, Q71RC2, UniProt Q71RC2, whole entry: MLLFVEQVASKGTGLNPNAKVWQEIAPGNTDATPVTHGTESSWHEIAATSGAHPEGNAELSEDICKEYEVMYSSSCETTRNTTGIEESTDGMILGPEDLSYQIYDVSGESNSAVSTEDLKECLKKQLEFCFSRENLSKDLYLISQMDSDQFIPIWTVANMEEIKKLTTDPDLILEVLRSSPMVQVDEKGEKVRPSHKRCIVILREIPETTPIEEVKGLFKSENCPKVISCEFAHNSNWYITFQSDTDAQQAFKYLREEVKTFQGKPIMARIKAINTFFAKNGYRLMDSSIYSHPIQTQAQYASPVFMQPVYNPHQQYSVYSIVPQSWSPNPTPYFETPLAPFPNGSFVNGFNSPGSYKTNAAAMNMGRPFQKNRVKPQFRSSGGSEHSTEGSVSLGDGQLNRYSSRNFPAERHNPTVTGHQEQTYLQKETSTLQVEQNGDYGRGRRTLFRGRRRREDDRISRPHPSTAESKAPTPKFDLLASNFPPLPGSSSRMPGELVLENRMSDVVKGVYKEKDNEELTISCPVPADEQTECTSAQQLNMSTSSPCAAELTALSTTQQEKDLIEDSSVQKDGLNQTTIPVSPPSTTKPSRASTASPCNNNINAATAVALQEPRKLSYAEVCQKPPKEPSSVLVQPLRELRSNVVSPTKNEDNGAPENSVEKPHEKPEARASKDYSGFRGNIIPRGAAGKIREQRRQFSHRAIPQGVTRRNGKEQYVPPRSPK
# ± gives the standard deviation of the averaged measurements. Some of the results follow. The list holds hits alone, and they repeat only in part.
# Tests used:
# Test in all cases: PRISMA enrichment of interactor (LFQ) in peptide spot vs all other peptide spots (log2 fold change); higher = stronger / more specific binding of the interactor to the peptide
# [1] = biological target: ADNP, Q9H2P0
# Method: (§1)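 PRISMA: 221 full-length sORF-encoded peptides (3-15 aa), plus SOS1/GLUT1 control peptides, were spot-synthesized on cellulose membranes in triplicate. Membranes were incubated with HEK293T lysate, and bound proteins were identified by LC-MS/MS with LFQ. Enrichment is the log2 fold change versus all other peptide spots; only significant interactors are listed (cutoff c=6, x0=2.8).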
# [2] = biological target: AHNAK, Q09666
# Method: as §1
# [3] = biological target: AHSA1, O95433
# Method: as §1
# [4] = biological target: ANKHD1, Q8IWZ3
# Method: as §1
# [5] = biological target: ANKRD17, O75179
# Method: as §1
# [6] = biological target: ASH2L
# Method: as §1
# [7] = biological target: ATF7IP, Q6VMQ6
# Method: as §1
# [8] = biological target: ATXN2, Q99700
# Method: as §1
# [9] = biological target: ATXN2L, Q8WWM7
# Method: as §1
# [10] = biological target: BAG6, P46379
# Method: as §1
# [11] = biological target: BAP1, Q92560
# Method: as §1
# [12] = biological target: BCOR, Q6W2J9
# Method: as §1
# [13] = biological target: BOLA3, Q53S33
# Method: as §1
# [14] = biological target: BPTF, Q12830
# Method: as §1
# [15] = biological target: C19orf47, Q8N9M1
# Method: as §1
# [16] = biological target: C19orf53, Q9UNZ5
# Method: as §1
# [17] = biological target: C1orf131, Q8NDD1
# Method: as §1
# [18] = biological target: CCAR1, Q8IX12
# Method: as §1
# [19] = biological target: CCAR2, Q8N163
# Method: as §1
# [20] = biological target: CCDC9, Q9Y3X0
# Method: as §1
# [21] = biological target: CDC42EP1, Q00587
# Method: as §1
# [22] = biological target: CGN, Q9P2M7
# Method: as §1
# [23] = biological target: CHD4, Q14839
# Method: as §1
# [24] = biological target: CHD8, Q9HCK8
# Method: as §1
# [25] = biological target: CHMP2B, Q9UQN3
# Method: as §1
# [26] = biological target: CKAP2, Q8WWK9
# Method: as §1
# [27] = biological target: CKS1B, P61024
# Method: as §1
# [28] = biological target: CKS2, P33552
# Method: as §1
# [29] = biological target: CSRP2, Q16527
# Method: as §1
# [30] = biological target: CXXC1, Q9P0U4
# Method: as §1
# [31] = biological target: CXorf56, Q9H5V9
# Method: as §1
# [32] = biological target: DAZAP1, Q96EP5
# Method: as §1
# [33] = biological target: DCTN1, Q14203
# Method: as §1
# [34] = biological target: DDX6, P26196
# Method: as §1
# [35] = biological target: DERPC, P0CG12
# Method: as §1
# [36] = biological target: DIDO1, Q9BTC0
# Method: as §1
# [37] = biological target: DIS3, Q9Y2L1
# Method: as §1
# [38] = biological target: DNAJB11, Q9UBS4
# Method: as §1
# [39] = biological target: EDF1, O60869
# Method: as §1
# [40] = biological target: EIF1, P41567
# Method: as §1
# [41] = biological target: EIF1B, O60739
# Method: as §1
# [42] = biological target: EIF4H, Q15056
# Method: as §1
# [43] = biological target: ELF2, Q15723
# Method: as §1
# [44] = biological target: EP400, Q96L91
# Method: as §1
# [45] = biological target: EPB41L2, O43491
# Method: as §1
# [46] = biological target: FAM168A, Q92567
# Method: as §1
# [47] = biological target: FAM207A, Q9NSI2
# Method: as §1
# [48] = biological target: FOXK1, P85037
# Method: as §1
# [49] = biological target: FOXK2, Q01167
# Method: as §1
# [50] = biological target: GATAD2A, Q86YP4
# Method: as §1
# [51] = biological target: HCFC1, P51610
# Method: as §1
# [52] = biological target: HDLBP, Q00341
# Method: as §1
# [53] = biological target: ISCU, Q9H1K1
# Method: as §1
# [54] = biological target: KIF22, Q14807
# Method: as §1
# [55] = biological target: KIF23, Q02241
# Method: as §1
# [56] = biological target: KIF2C, Q99661
# Method: as §1
# [57] = biological target: KMT2A, Q03164
# Method: as §1
# [58] = biological target: KNSTRN, Q9Y448
# Method: as §1
# [59] = biological target: LARP4, Q71RC2
# Method: as §1
# [60] = biological target: LARP4B, Q92615
# Method: as §1
binder,measurement,setting,value
MAASSEIIIQVFVS [VPS8],PRISMA enrichment of interactor (log2),[1],4.49
same,PRISMA enrichment of interactor (log2),[2],4.55
same,PRISMA enrichment of interactor (log2),[3],5.89
same,PRISMA enrichment of interactor (log2),[4],3.99
same,PRISMA enrichment of interactor (log2),[5],4.68
same,PRISMA enrichment of interactor (log2),[6],6.34
same,PRISMA enrichment of interactor (log2),[7],4.78
same,PRISMA enrichment of interactor (log2),[8],6.53
same,PRISMA enrichment of interactor (log2),[9],7.28
same,PRISMA enrichment of interactor (log2),[10],4.74
same,PRISMA enrichment of interactor (log2),[11],5.15
same,PRISMA enrichment of interactor (log2),[12],6.27
same,PRISMA enrichment of interactor (log2),[13],6.28
same,PRISMA enrichment of interactor (log2),[14],7.21
same,PRISMA enrichment of interactor (log2),[15],4.75
same,PRISMA enrichment of interactor (log2),[16],6.01
same,PRISMA enrichment of interactor (log2),[17],4.03
same,PRISMA enrichment of interactor (log2),[18],10.3
same,PRISMA enrichment of interactor (log2),[19],5.26
same,PRISMA enrichment of interactor (log2),[20],5.31
same,PRISMA enrichment of interactor (log2),[21],4.34
same,PRISMA enrichment of interactor (log2),[22],6.67
same,PRISMA enrichment of interactor (log2),[23],5.36
same,PRISMA enrichment of interactor (log2),[24],6.66
same,PRISMA enrichment of interactor (log2),[25],4.47
same,PRISMA enrichment of interactor (log2),[26],5.14
same,PRISMA enrichment of interactor (log2),[27],4.79
same,PRISMA enrichment of interactor (log2),[28],5.25
same,PRISMA enrichment of interactor (log2),[29],4.7
same,PRISMA enrichment of interactor (log2),[30],5.05
same,PRISMA enrichment of interactor (log2),[31],4.96
same,PRISMA enrichment of interactor (log2),[32],5.09
same,PRISMA enrichment of interactor (log2),[33],4.67
same,PRISMA enrichment of interactor (log2),[34],5.13
same,PRISMA enrichment of interactor (log2),[35],5.28
same,PRISMA enrichment of interactor (log2),[36],10.4
same,PRISMA enrichment of interactor (log2),[37],4.83
same,PRISMA enrichment of interactor (log2),[38],7.79
same,PRISMA enrichment of interactor (log2),[39],4.86
same,PRISMA enrichment of interactor (log2),[40],5.6
same,PRISMA enrichment of interactor (log2),[41],5.76
same,PRISMA enrichment of interactor (log2),[42],5.02
same,PRISMA enrichment of interactor (log2),[43],6.1
same,PRISMA enrichment of interactor (log2),[44],5.89
same,PRISMA enrichment of interactor (log2),[45],4.84
same,PRISMA enrichment of interactor (log2),[46],5.04
same,PRISMA enrichment of interactor (log2),[47],4.15
same,PRISMA enrichment of interactor (log2),[48],5.58
same,PRISMA enrichment of interactor (log2),[49],6.91
same,PRISMA enrichment of interactor (log2),[50],4.89
same,PRISMA enrichment of interactor (log2),[51],8 ± 3.3
same,PRISMA enrichment of interactor (log2),[52],5.44
same,PRISMA enrichment of interactor (log2),[53],6.17
same,PRISMA enrichment of interactor (log2),[54],4.73
same,PRISMA enrichment of interactor (log2),[55],4.43
same,PRISMA enrichment of interactor (log2),[56],5.12
same,PRISMA enrichment of interactor (log2),[57],4.43
same,PRISMA enrichment of interactor (log2),[58],4.3
same,PRISMA enrichment of interactor (log2),[59],6.33
same,PRISMA enrichment of interactor (log2),[60],4.71

# Already shown: entries from further up.
binder,measurement,setting,value
MAASSEIIIQVFVS [VPS8],PRISMA enrichment of interactor (log2),[2],4.55
same,PRISMA enrichment of interactor (log2),[3],5.89
same,PRISMA enrichment of interactor (log2),[4],3.99
same,PRISMA enrichment of interactor (log2),[5],4.68
